PubChem BioAssay AID652243 – Drosophila RNAi Screening Center, 2013
The deposit covers about 24,000 reagents; below is a random part of those with a known target gene and a result. Of all reagents, 246 (1%) are marked active. 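Plates not normalised; calls are printed but the firefly/Renilla ratio behind them is not deposited; fold cut for lowering reported inconsistently.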 Raw values vary from plate to plate and are shown uncorrected. Names joined by + are all predicted targets of the reagent. Reagent sequences are not shown. The record does not give: the amount of reagent.

- Assay: 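Knock-downs that decrease or increase androgen receptor reporter signal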 (primary screen)
- System: Drosophila S2R+ cells
- Knock-down reagent: long dsRNA against Drosophila genes
- Duration: 72 h (48 h, then 24 h hormone)
- Conditions: synthetic androgen R1881 at 10 nM for 24 h
- Measurement: 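Per-well raw luminescence of the androgen-driven firefly reporter and of the Renilla control, two replicates each, without normalisation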
- Direction: firefly reporter light: higher = more light from androgen-responsive reporter; Renilla control light: higher = more constitutive control signal (cell number, transfection)
- Call rule: 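Hit when the log firefly-to-Renilla ratio dropped or increased by a fixed fold versus the mean of GFP or LacZ controls across duplicate plates; lowering cut given as 1.5 and as 3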
- Calls: active = hit: reporter lowered or raised; inactive = no hit

| Target gene | amplicon | firefly reporter light, replicate 1 | firefly reporter light, replicate 2 | Renilla control light, replicate 1 | Renilla control light, replicate 2 | activity call |
| --- | --- | --- | --- | --- | --- | --- |
| CG17163 (GeneID 3354988) | DRSC20901 | 1.35e5 | 1.52e5 | 6.34e5 | 6.47e5 | inactive |
| Syt7 (GeneID 43783) | DRSC17130 | 3.41e5 | 3.52e5 | 6.90e6 | 4.79e6 | inactive |
| Syt7 (GeneID 43783) | DRSC17159 | 3.10e5 | 4.18e5 | 5.83e6 | 3.12e6 | inactive |
| CG7460 (GeneID 39973) | DRSC10850 | 1.76e5 | 2.37e5 | 1.71e6 | 2.26e6 | inactive |
| CG7460 (GeneID 39973) | DRSC27927 | 1.16e6 | 8.79e5 | 2.54e6 | 1.62e6 | inactive |
| MED20 (GeneID 43952) | DRSC03463 | 1.51e5 | 1.52e5 | 1.23e6 | 1.19e6 | inactive |
| Acp63F (GeneID 38448) | DRSC08137 | 1.57e5 | 1.67e5 | 1.27e6 | 1.84e6 | inactive |
| CG42306 + Gint3 | DRSC06934 | 8.51e5 | 9.12e5 | 1.77e6 | 2.02e6 | inactive |
| CG42306 + Gint3 | DRSC29885 | 3.63e5 | 4.14e5 | 8.66e5 | 8.92e5 | inactive |
| GluRIID (GeneID 44483) | DRSC16723 | 3.74e5 | 3.38e5 | 2.45e6 | 3.33e6 | inactive |
| GluRIID (GeneID 44483) | DRSC24866 | 4.96e5 | 3.97e5 | 4.40e5 | 4.92e5 | inactive |
| CG9485 (GeneID 37435) | DRSC04557 | 7.21e5 | 6.25e5 | 2.05e6 | 1.84e6 | inactive |
| CG7685 (GeneID 42220) | DRSC16285 | 1.50e5 | 1.09e5 | 1.66e6 | 1.77e6 | inactive |
| CG7685 (GeneID 42220) | DRSC27560 | 3.26e5 | 2.68e5 | 7.75e5 | 8.82e5 | inactive |
| CG5023 (GeneID 42400) | DRSC15697 | 2.35e5 | 2.78e5 | 3.95e6 | 4.44e6 | inactive |
| Cht9 (GeneID 37392) | DRSC04079 | 9.12e5 | 9.28e5 | 2.40e6 | 2.52e6 | inactive |
| Cht9 (GeneID 37392) | DRSC24781 | 8.32e5 | 9.56e5 | 9.50e5 | 1.08e6 | inactive |
| HLH4C (GeneID 31397) | DRSC18670 | 2.60e5 | 2.12e5 | 2.45e6 | 2.01e6 | inactive |
| HLH4C (GeneID 31397) | DRSC21322 | 5.92e5 | 5.78e5 | 2.17e6 | 2.31e6 | inactive |
| HLH4C (GeneID 31397) | DRSC25228 | 4.32e5 | 3.73e5 | 4.19e5 | 4.85e5 | inactive |
| CG6180 (GeneID 34683) | DRSC02937 | 1.15e6 | 1.15e6 | 2.07e6 | 2.22e6 | inactive |
| CG6180 (GeneID 34683) | DRSC25726 | 5.96e5 | 7.53e5 | 6.13e5 | 7.87e5 | inactive |
| Gapdh2 (GeneID 32545) | DRSC20246 | 4.46e5 | 5.07e5 | 3.09e6 | 2.42e6 | inactive |
| Gapdh2 (GeneID 32545) | DRSC24596 | 4.70e5 | 4.18e5 | 4.29e5 | 4.75e5 | inactive |

4 entries already listed, arranged by “Renilla control light, replicate 1”, ascending:
| Target gene | amplicon | firefly reporter light, replicate 1 | firefly reporter light, replicate 2 | Renilla control light, replicate 1 | Renilla control light, replicate 2 | activity call |
| --- | --- | --- | --- | --- | --- | --- |
| HLH4C (GeneID 31397) | DRSC25228 | 4.32e5 | 3.73e5 | 4.19e5 | 4.85e5 | inactive |
| CG6180 (GeneID 34683) | DRSC02937 | 1.15e6 | 1.15e6 | 2.07e6 | 2.22e6 | inactive |
| HLH4C (GeneID 31397) | DRSC21322 | 5.92e5 | 5.78e5 | 2.17e6 | 2.31e6 | inactive |
| HLH4C (GeneID 31397) | DRSC18670 | 2.60e5 | 2.12e5 | 2.45e6 | 2.01e6 | inactive |
